Data on 1 molecule can be found in patent US20180353539A1, “METAL COMPLEXES AS PHARMACEUTICALS FOR TREATMENT AND PREVENTION OF CANCER AND INFLAMMATORY DISEASES” (UNIVERSITY OF SOUTHERN CALIFORNIA, priority 2017, published 2018).

The series deals with fresh muscle tissue. The experiment in a line: Treated muscle tissue implanted subcutaneously into rats. The class given is in vivo.

Regarding `Nc1ccn([C@@H]2O[C@H](CO)[C@@H](O)C2(F)F)c(=O)n1` [Gemcitabine], the “inflammation of implanted tissue” value (day 3, tissue treated ex vivo 24 hours (Gemcitabine 100 microM)) is “severe inflammation” and the “inflammation of implanted tissue” value (day 7) is listed as “severe inflammation”. Moreover, under “day 7”, the “state and capsulation of implanted tissue” value was “fibrous capsules formed around the tissue”.
